Assay results reported in patent US20180020669A1, “Methods for the Inhibition and Dispersal of Biofilms” (priority 2015, published 2018).
At least one compound was matched to its structure with a doubt left.

Legend:
Type in all cases: cell-based, Staphylococcus aureus
[1] = test system: S. aureus; experiment: Resistance frequency assay; conditions: CaMHB broth with serial dilutions of the compound
[2] = test system: potentially auranofin-resistant and rifampicin-resistant S. aureus; experiment: Biofilm prevention assay with potential resistant mutants; conditions: FIG. 8
[3] = test system: S. aureus NCTC 8325 and clinical isolates; experiment: Disc assay for resistance development; conditions: 4 μg disc, TSB agar, overnight
Description: Bacteria were plated on TSB agar. 3M discs (impregnated with 4 μg auranofin, 4 μg rifampicin or DMSO alone) were placed on top of the agar. The plates were incubated overnight at 37° C. and any zone of bacterial inhibition was measured. Any bacterial colonies growing within this zone of inhibition were picked and subsequently analysed for potential resistance against the appropriate compound/antibiotic using a growth or biofilm formation assay as described above. […] These S. aureus Rif mutants were tested in a growth assay and their rifampicin resistance confirmed.

[4] = test system: rifampicin-resistant S. aureus mutants; conditions: discs with 4 μg (4 μg each), TSB agar, overnight, data not shown

Question: Which results are given for CO[C@H]1/C=C/O[C@@]2(C)Oc3c(C)c(O)c4c(O)c(c(/C=N/N5CCN(C)CC5)c(O)c4c3C2=O)NC(=O)/C(C)=C\C=C\[C@H](C)[C@H](O)[C@@H](C)[C@@H](O)[C@@H](C)[C@H](OC(C)=O)[C@@H]1C [rifampicin]?
Answer: resistance of potential mutants picked from agar plates, growth assay [1]: fully resistant; biofilm formation by potentially rifampicin-resistant bacteria [2]: resistant to all concentrations of rifampicin; bacterial colonies growing within the zone of inhibition (resistance) [3]: mutants were isolated; zone of inhibition ([3]; NCTC 8325 and clinical isolates incl. MRSA): produced zones of inhibition; zone of inhibition on rifampicin-resistant mutants [4]: not around discs containing rifampicin
